Assay [1] addresses GST-Bcl-2 (human) [GST: P08515]. In words: ELISA (figure legend).
The target is the same in assay [2]. The assay can be described thus: ELISA, 6HBad coated on the plate, GST fusion in solution, anti-GST detection. In general terms: ELISA stands for enzyme-linked immunosorbent assay.

These are yes or no findings as the source states them, for the method shown. Some results given as binding are weak or reduced against the parent protein; the word gives no strength. Where a sequence is shown, tags or fusion partners need not be part of it.

Experimental findings from US20020115631A1 are described below.

B1: 6HBad fusion protein (full length human Bad with N-terminal six residue Histidine tag, construct pET-15 6H Bad) (protein, not shown: small tags and cut ends)
chain: MFQIPEFEPSEQEDSSSAERGLGPSPAGDGPSGSGKHHRQAPGLLWDASHQQEQPTSSSHHGGAGAVEIRSRHSSYPAGTEDDEGMGEEPSPFRGRSRSAPPNLWAAQRYGRELRRMSDEFVDSFKKGLPRPKSAGTATQMRQSSSWTRVFQSWWDRNLGRGSSAPSQ
Regarding B1, the binding result in assay [1] and in assay [2] was “binds” throughout.
